The text below walks through data of article doi:10.1101/2025.09.30.25337017.

The target of this experiment is T1, HSPA13 (UniProt P48723).
T1 sequence: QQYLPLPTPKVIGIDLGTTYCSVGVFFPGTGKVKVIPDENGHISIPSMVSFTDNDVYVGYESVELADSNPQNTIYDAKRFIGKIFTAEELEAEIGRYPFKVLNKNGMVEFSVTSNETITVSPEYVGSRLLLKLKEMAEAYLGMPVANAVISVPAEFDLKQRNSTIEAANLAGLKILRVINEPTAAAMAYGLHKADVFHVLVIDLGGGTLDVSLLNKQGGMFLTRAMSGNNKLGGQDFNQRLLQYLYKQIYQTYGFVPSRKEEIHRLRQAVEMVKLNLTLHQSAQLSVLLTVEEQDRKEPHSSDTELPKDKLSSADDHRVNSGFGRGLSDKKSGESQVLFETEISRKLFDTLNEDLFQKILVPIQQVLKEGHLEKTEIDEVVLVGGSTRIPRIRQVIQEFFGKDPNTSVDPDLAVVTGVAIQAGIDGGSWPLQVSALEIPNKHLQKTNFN
The experiment can be described thus: co-IP.

These are yes or no findings as the source states them, for the method shown. Binding seen in cells or lysates may run through a third protein. Binding calls can cover weak binding; strength is not graded here.

For the substance DDR1, the binding entry is recorded as “binds”.
